# PubChem BioAssay AID493014 (National Center for Advancing Translational Sciences (NCATS), 2011)
# Out of some 340,000 compounds screened, about 170 (0.05%) were called active. The shares of active, inactive and inconclusive entries below differ from those in the screen. Calls come from the whole dose curve; as a rule, active = well fitted inhibition curve with a large enough effect in the signal ratio, with a control signal flat (not every such curve was filed as active); inconclusive = small, poorly fitted or top-dose-only effect, or effect the other way, or a change in a side signal; inactive = flat fitted curve, though single readings scatter; the % refers to the signal ratio. A potency beside an inconclusive call is a rough fit, not a confirmed value.
# Test: qHTS Assay to Find Inhibitors of Chronic Active B-Cell Receptor Signaling;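 for activity change, negative = inhibition: plate controls were basal doxycycline-induced cells for no effect and cells given 10 µM MG132 for full effect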
# Conditions: ABC-DLBCL IkBa-CBG/CBR reporter, luminescence ratio (green luciferase fused to IkBa over red control in TMD8 lymphoma cells), 4 h; activity change, negative = inhibition: at 46.1 µM (top of the series)
# How it was run: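 Compounds up to 46 uM were incubated four hours with TMD8 cells whose green CBG68 luciferase is fused to IkappaBalpha; red CBR luminescence normalised the signal, and concentration-effect curves were fitted to fusion, red and ratio data.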
# Potency is the fitted concentration of half-maximal effect.
Compound,Potency,"activity change, negative = inhibition"
COc1cc(C(C[N+](=O)[O-])c2c(N)n(C)c(=O)n(C)c2=O)ccc1O (stereo not given),"inconclusive: 15.8 µM [cytotoxic, single point]",–
Cc1c(C)n(C)c2ccc(C(=O)N3CCN(c4ccccn4)CC3)cc12,–,inactive
COc1ccc(C(CNC(=O)c2cccc(S(=O)(=O)N3CCc4ccccc43)c2)N(C)C)cc1 (stereo not given),–,inconclusive: -15.6%
COC(=O)c1ccc(CSc2nc3cc(Cl)ccc3o2)cc1,"inconclusive: 1.3 µM [falling, partial curve, poor fit]",–
Cc1ccnc(NC(=O)c2cccs2)c1,–,inconclusive: 2.95%
Cn1c(C(=O)N2CCN(Cc3ccc4c(c3)OCO4)CC2)cc2c(=O)n(C)c3ccccc3c21,–,inconclusive: 3.38%
Cc1nc2cc3sc(C)nc3cc2s1,–,inconclusive: -3.99%
O=C1NC(c2ccc(Cl)c([N+](=O)[O-])c2)Nc2ccccc21 (stereo not given),–,inactive
Cc1oc2c(O)c(O)ccc2c(=O)c1-c1ccccc1,"inconclusive: 0.794 µM [rising, full curve, poor fit]",–
O=C1[C@@H]2[C@H]3CC[C@H](C3)[C@@H]2C(=O)N1O,–,inconclusive: 12.2%
COc1ccc(C(=O)N2CCC(c3ccncc3)CC2)cc1OC,–,inactive
COc1ccc(N2CCN(C(=O)c3ccc(F)cc3)CC2)c([N+](=O)[O-])c1,–,inconclusive: -15.5%
COCCn1c(SCC(=O)Nc2sccc2C(N)=O)nc2cc(Cl)ccc2c1=O,–,inconclusive: -0.722%
c1ccc(-c2nccnc2-c2ccccc2)cc1,–,inconclusive: 2.17%
COc1ccc(C(=O)Nn2c(SCC(=O)NC3CCCC3)nc3ccccc3c2=O)cc1,"inconclusive: 5.01 µM [falling, single point]",–
S=c1[nH]nc(C2CCCCC2)n1/N=C/c1ccc(Br)s1,–,inactive
CCC(C)NC(=O)Cn1cc2c(n1)CCC(C)C2 (stereo not given),–,inconclusive: -3.67%
CCc1ccccc1NC(=O)Nc1cc(F)ccc1F,–,inactive
O=C(NC1CCCCC1)c1cc(-c2cccs2)on1,–,inconclusive: 339%
O=C(/C=C/c1cccc(F)c1)Nc1cc(S(=O)(=O)N2CCOCC2)ccc1N1CCCC1,–,inconclusive: 8.19%
COc1ccc(C(=O)n2nc(-c3ccco3)nc2N)cc1,–,inconclusive: -1.9%
Cn1c2ccccc2c2cc(C(=O)OCC(=O)N3CC(=O)Nc4ccccc43)sc21,"inconclusive: 11.2 µM [falling, partial curve, poor fit]",–
O=C(NNC(=O)c1ccccc1F)c1cccs1,"inconclusive: 35.5 µM [falling, partial curve, poor fit]",–
Cc1cc(C)cc(NC(=O)CCC(=O)Nc2nnc(C(C)C)s2)c1,"inconclusive: 2.82 µM [falling, full curve, poor fit]",–
O=C(O)CCC(=O)Nc1ccccc1C(=O)NCCc1ccccc1,–,inactive
CC(C)CCN1C(=O)c2ccc(C(=O)Nc3ccccc3C(=O)O)cc2C1=O,"inconclusive: 35.5 µM [falling, single point]",–
CCOC(=O)[C@H]1[C@H]2COc3cc(OC)ccc3[C@@H]2N2C(=O)N(c3ccc(Br)cc3)C(=O)[C@@]12C,–,inconclusive: 17.6%

Compound,Potency,"activity change, negative = inhibition"
C[C@H](CO)N1C[C@H](C)[C@@H](CN(C)S(=O)(=O)c2ccc(F)cc2)Oc2ccc(NS(=O)(=O)c3ccccc3)cc2C1=O,–,inconclusive: -3.09%
O=C(N/N=C/c1ccc(OC(=O)c2ccco2)cc1)c1ccccn1,"inconclusive: 20 µM [falling, partial curve]",–
COC(=O)/C=c1/s/c(=C(/C#N)C(=O)N2CCOCC2)n(-c2ccccc2)c1=O,–,inactive
COC(=O)[C@H](C)NC(=O)Nc1ccc(C)c(C)c1,–,inconclusive: -13%
O=C(c1ccccc1)N1CCN(Cc2cccc(Oc3ccccc3)c2)CC1,–,inconclusive: -0.114%
COc1ccc(C(C#N)=C2C=CC(=NO)C=C2)cc1,"inconclusive: 22.4 µM [falling, single point]",–
COc1ccc(C(=O)/C=C/C(=O)N(CC(=O)NC2CCCCC2)Cc2ccccc2OC)c(O)c1,"inconclusive: 2.82 µM [falling, partial curve, poor fit]",–
Cn1nc(OC(=O)Nc2ccc(F)cc2)cc1C(F)(F)F,–,inconclusive: 19.3%
O=C(NCc1ccccc1Cl)c1csc2c1CCCCC2,"inconclusive: 10.3 µM [falling, partial curve]",–
CC1CCCN(CCOc2ccc3ccccc3c2Br)C1 (stereo not given),–,inconclusive: -0.87%
CC(C)C[C@H]1CN=C(Nc2ccccc2)N1CCC1CCCCC1,"inconclusive: 35.5 µM [falling, single point]",–
COCCN(CCOC)S(=O)(=O)c1ccc(C(=O)Nc2sc3c(c2C(N)=O)CCCCC3)cc1,"inconclusive: 1.64 µM [falling, full curve]",–
O=C(CNc1cccc(S(=O)(=O)N2CCCC2)c1)Nc1cccc(F)c1,–,inconclusive: -3%
O=C(c1ccncc1)N1c2ccccc2Sc2ccccc21,–,inconclusive: -16.2%
O=C(O)COc1ccccc1/C=N/NC(=O)COc1ccc(-c2ccccc2)cc1,–,inactive
O=C(N=Nc1c(O)[nH]c2ccc([N+](=O)[O-])cc12)c1ccccc1[N+](=O)[O-],–,inconclusive: -11.3%
CNC(=O)CN1C(=O)NC(c2ccccc2)(c2ccccc2)C1=O,–,inconclusive: -0.424%
Cc1cc(C(F)(F)F)nn1Cc1n[nH]c(=S)n1-c1ccc(F)cc1,–,inconclusive: 9.56%
Cc1cc(C)cc(Oc2nc(-c3ccccc3)cc(C)c2S(C)(=O)=O)c1,"inconclusive: 2.06 µM [rising, full curve, poor fit]",–
CCC(=O)Nc1cc(C(=O)OC(C(=O)c2ccc(C)c(C)c2)c2ccccc2)ccc1C (stereo not given),–,inactive
Cc1ccc(C(C)C)c(OCCn2ccnc2C)c1,–,inactive
COc1ccc(NC(=O)CSc2nncs2)cc1S(=O)(=O)N1CCCCC1,–,inactive
Cn1c(=O)n(C)c2cc(NC(=O)c3ccccc3[N+](=O)[O-])c(Br)cc21,"inconclusive: 14.1 µM [rising, partial curve, poor fit]",–
Cc1nn(-c2ccccc2)c(N)c1N=Nc1ccc2ccccc2c1,–,inconclusive: -0.609%
O=[N+]([O-])c1ccccc1Nc1cccnc1,–,inactive
COc1ccc(N2CCN(C(=O)c3ccc(NC(=O)C4=CSCCO4)cc3)CC2)cc1,–,inconclusive: -9.42%
O=C(CCc1nc2ccccc2c(=O)[nH]1)N1CCN(C/C=C/c2ccccc2)CC1,–,inconclusive: 19.6%

# In the list so far, 11 have an aryl methoxy group.
Compound,Potency,"activity change, negative = inhibition"
COc1cc(C(C[N+](=O)[O-])c2c(N)n(C)c(=O)n(C)c2=O)ccc1O (stereo not given),"inconclusive: 15.8 µM [cytotoxic, single point]",–
COc1ccc(C(CNC(=O)c2cccc(S(=O)(=O)N3CCc4ccccc43)c2)N(C)C)cc1 (stereo not given),–,inconclusive: -15.6%
COc1ccc(C(=O)N2CCC(c3ccncc3)CC2)cc1OC,–,inactive
COc1ccc(N2CCN(C(=O)c3ccc(F)cc3)CC2)c([N+](=O)[O-])c1,–,inconclusive: -15.5%
COc1ccc(C(=O)Nn2c(SCC(=O)NC3CCCC3)nc3ccccc3c2=O)cc1,"inconclusive: 5.01 µM [falling, single point]",–
COc1ccc(C(=O)n2nc(-c3ccco3)nc2N)cc1,–,inconclusive: -1.9%
CCOC(=O)[C@H]1[C@H]2COc3cc(OC)ccc3[C@@H]2N2C(=O)N(c3ccc(Br)cc3)C(=O)[C@@]12C,–,inconclusive: 17.6%
COc1ccc(C(C#N)=C2C=CC(=NO)C=C2)cc1,"inconclusive: 22.4 µM [falling, single point]",–
COc1ccc(C(=O)/C=C/C(=O)N(CC(=O)NC2CCCCC2)Cc2ccccc2OC)c(O)c1,"inconclusive: 2.82 µM [falling, partial curve, poor fit]",–
COc1ccc(NC(=O)CSc2nncs2)cc1S(=O)(=O)N1CCCCC1,–,inactive
COc1ccc(N2CCN(C(=O)c3ccc(NC(=O)C4=CSCCO4)cc3)CC2)cc1,–,inconclusive: -9.42%

# Some of the entries so far, bar-delimited:
Compound | Potency | activity change, negative = inhibition
CC1CCCN(CCOc2ccc3ccccc3c2Br)C1 (stereo not given) | – | inconclusive: -0.87%
O=C(CNc1cccc(S(=O)(=O)N2CCCC2)c1)Nc1cccc(F)c1 | – | inconclusive: -3%

# Continuation.

Compound,Potency,"activity change, negative = inhibition"
O=C(CSc1nnc(C2CC2)n1C1CC1)c1ccccc1F,"inconclusive: 18.4 µM [falling, single point]",–
CC1=NN(c2ccccc2)C(=O)C1,"inconclusive: 1.41 µM [rising, full curve]",–
O=C(CN1CCN(Cc2ccccc2Cl)C1=O)NCc1ccccn1,–,inconclusive: -3.47%
Cc1ccc(NC(=O)c2cc(S(=O)(=O)N3CCCC3)cn2C)cc1,–,inconclusive: 19.6%
Cn1ccc2c(OCC(=O)NCc3ccccc3Cl)cccc2c1=O,"inconclusive: 35.5 µM [falling, single point]",–
O=C(NCc1ccccc1)c1ccc(Cl)nc1,"inconclusive: 2.82 µM [rising, partial curve]",–
Cc1ccc(/C=N/NC(=O)Cn2nc(C)c(Br)c2C)o1,–,inconclusive: 1.34%
CC(=O)N(CCc1ccccc1C)Cc1cc2ccc(C)cc2[nH]c1=O,–,inconclusive: -0.838%
COc1cc2c(cc1OC)C(c1cccc(Br)c1)NC(=O)C2 (stereo not given),–,inconclusive: -12.9%
O=C(O)c1cccc(NC(=O)c2ccccc2NC(=O)c2ccco2)c1,–,inconclusive: -18.7%
COc1ccc(CNCC(O)COc2cccc3c2OC(C)(C)C3)cc1 (stereo not given),–,inconclusive: -16.6%
Cc1cc(C)nc(NCc2ccc(Cl)cc2)n1,–,inconclusive: 7.67%
O=C(O)C(CCCCNS(=O)(=O)c1ccc(F)cc1)NS(=O)(=O)c1ccc(F)cc1 (stereo not given),–,inactive
O=C(NCC(=O)N(c1cccc(F)c1)C(C(=O)NCC1CCCO1)c1ccccc1)c1ccco1 (stereo not given),–,inactive
CN(C)C(=O)c1ccc(NC(=O)c2ccccc2SCC(=O)N2CCCC2)cc1,–,inconclusive: 5.22%
COCCCNC(=S)Nc1ccccc1C,–,inconclusive: 1.5%
CCOCc1cnc(C)nc1NCC(=O)c1c(C)n(C)c2ccc(OC)cc12,"inconclusive: 31.6 µM [falling, single point]",–
Cc1ccc([N+](=O)[O-])cc1S(=O)(=O)N1CCCC1,"inconclusive: 20.6 µM [falling, partial curve, poor fit]",–
CC(C)Cc1cc(C(=O)O)n[nH]1,–,inconclusive: 6.77%
Cc1cc(Cl)c(S(=O)(=O)Nc2ccc3c(c2)OCCO3)cc1OCC(=O)NC1CCCCC1,–,inconclusive: -14.3%
O=C(N/C=C/n1cnc2cc(C(F)(F)F)ccc21)c1ccccc1F,–,inconclusive: 3%
CCC(CO)Oc1cc(NCc2ccccc2O)c2ncn(C(C)C)c2c1 (stereo not given),–,inconclusive: -10%
COc1cc(NC(=O)c2ccnc(N)c2)cc(C(=O)Nc2cccc(C(F)(F)F)c2)c1,"inconclusive: 28.2 µM [falling, single point]",–
CCOc1ccc(/C=N/OCC(=O)NC(c2ccccc2)c2ccccc2)cc1,–,inactive
CN(C)S(=O)(=O)Oc1ccccc1C(=O)Nc1cccc(C(F)(F)F)c1,–,inconclusive: 16.5%
CCOc1cc(C(=O)OCC(=O)Nc2ccc(F)cc2Cl)ccc1OCC(=O)N1CCOCC1,"inconclusive: 20.6 µM [falling, single point]",–
